The list shows a part of the results. Shown are side measurements of this screen, not its main read-out; they come without a call.
Assay: cytotoxicity in NIH3T3 fibroblasts, dose response, cytotoxicity control, cell-based, plate reader, cherry-pick, two tests (AID 651900)
Settings: test 2 concentration series, at 26 µM

Compound	activity
COc1ccc(NC(=O)c2ccc(Cl)nc2)cc1S(=O)(=O)N1CCOCC1	-4.21%
O=C(Nc1ccc(F)c(Cl)c1)C1CCCN(c2cnccn2)C1 (centres undefined)	-8.84%
COC(=O)C1CCN(C(c2ccc(OC)c(OC)c2)c2sc3nc(C)nn3c2O)CC1 (centres undefined)	-7.29%
Cc1nnc(N2CCC(C(=O)N3CCCCC3)CC2)c2nn(-c3ccc(Cl)cc3)c(C)c12	-5.02%
COCCN1C(=O)c2ccc(C(=O)Nc3cccnc3)cc2C1=O	3.17%
COc1cc(/C=C/C(=O)Nc2cccnc2)cc(OC)c1OC	-2.55%
Cc1cccc(-n2c(SCC(=O)N(C)C3CCS(=O)(=O)C3)nc3ccccc3c2=O)c1C (centres undefined)	4.22%
O=C(CSc1nncs1)N1c2ccccc2Sc2ccccc21	-2.67%
CC(C)n1c(N2CCN(C(=O)c3cccs3)CC2)nc2ccccc21	2.83%
Fc1ccc(-c2ccc3c(c2)C2CC3CCN2)cc1 (centres undefined)	-2.07%
CCOC(=O)c1ccc2c(c1)nc(SCc1cn3ccsc3n1)n2CC	-8.13%
O=C(Nc1ccc(F)cc1)NC1CCN(Cc2nnnn2Cc2ccco2)CC1	0.188%
O=C(COc1ccc2ccc(=O)oc2c1)Nc1cccnc1	-3.91%
COc1ccc(C(=O)Nc2ccc(Cn3ccnc3)cc2)cc1OC	2.9%
CCCc1cc(=O)oc2c3c(cc(OCC(=O)NCCCn4ccnc4)c12)OC(C)(C)CC3	-5.78%
Cc1nc2nc(SCC(=O)N3CCOCC3)nn2c(C)c1Cc1ccccc1	-6.33%
COc1ccc(-c2nc3ccc(Cl)cn3c2Cc2ccccc2)cc1OC	-6.73%

A second format for some results above.
COC(=O)C1CCN(C(c2ccc(OC)c(OC)c2)c2sc3nc(C)nn3c2O)CC1 (centres undefined)
  activity: -7.29%
O=C(CSc1nncs1)N1c2ccccc2Sc2ccccc21
  activity: -2.67%

Remaining list, next part

Compound	activity
O=C(Nc1ncc2c(n1)CC(c1ccco1)CC2=O)c1ccco1 (centres undefined)	2.67%
CCCc1c(OCCCOc2ccc(OCC(=O)O)cc2)ccc(C(C)=O)c1O	2.08%
O=C(Nc1ccc2snnc2c1)N1CCN(c2ccccc2)CC1	0.698%
CC(=O)c1ccc(NC(=O)CN2CCN(c3ccccc3)CC2)cc1	-2.98%
Nn1c(SCc2nc3ccccc3[nH]2)nnc1-c1cccnc1	0.63%
O=C(c1ccc(Br)s1)N1CCN(Cc2ccc3c(c2)OCO3)CC1	-7.23%
Cn1nnc2cc(C(=O)N3CCC(c4ccccc4)C3)ccc21 (centres undefined)	-8.37%
Cc1ccc(S(=O)(=O)N(C)C)cc1NC(=O)CSc1nncs1	-1.48%
CN(C(=O)CSc1nc2ccccc2c(=O)n1-c1ccccc1Cl)C1CCS(=O)(=O)C1 (centres undefined)	0.744%
CCn1c(=O)c(=O)n(CC)c2cc(S(=O)(=O)Nc3cc(C)ccc3C)ccc21	-16%
Fc1ccc2[nH]c3c(NCCN4CCOCC4)ncnc3c2c1	-1.95%
Cc1c(C(N)=O)sc(N)c1C(=O)OC(C)C	-14.3%
COc1ccc(-c2nc3cnccn3c2Nc2ccc3c(c2)OCO3)cc1	-11.8%
Cc1ccc(Cc2c(C)nc3nc(SCC(=O)NCc4ccco4)nn3c2C)cc1	0.407%
CC1Cc2nc(SCC(=O)N3CCOCC3)n(-c3ccccc3)c(=O)c2S1 (centres undefined)	-1.85%
COc1cc(C(=O)N2Cc3cc4ccccc4nc3C2C)cc(OC)c1OC (centres undefined)	7.18%
COc1ccc(C(=O)Nc2cccc(NC(=O)c3cccs3)c2)cc1	-2.49%
